Experimental data: PubChem BioAssay AID1259254 (NCATS, 2017)
This is a random part of about 59,000 reagents. Over the whole deposit, about 1,550 (2.6%) got an active call. 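G2 share is only a proxy for re-replication; each gene was hit by three separate siRNAs, and active genes were retested.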 The raw values are shown without normalisation. The numbers tell different reagents against one gene apart. Reagent sequences are not shown. Not stated in the record: the amount of reagent.

- Screen: 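Genome-wide screen for genes that prevent DNA re-replication in cancer cells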 (primary screen)
- Cells: human HCT116 colorectal cancer cells
- Reagents: single siRNA against human genes
- Timing: 3 days
- Detection: 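Imaged Hoechst DNA stain sorts each cell into a cycle phase by DNA amount; per plate, G2 fraction set to 0% for non-targeting and 100% for GMNN siRNA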
- Scale: G2 robust z-score and G2 cells, % of GMNN control: higher = more G2 cells, more excess DNA replication; raw share of cells in G2: higher = larger share of cells with G2 DNA content
- Rule for the call: 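An siRNA counts as active if its G2 robust z-score lies at least 5 MADs above the screen median; here such calls match roughly 38% of GMNN control or more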

gene symbol | siRNA no. | G2 robust z-score | G2 cells, % of GMNN control | raw share of cells in G2 (%) | Call
TGDS | 1 | -0.934 | -3.6 | 2.95 | inactive
TGDS | 2 | 0.616 | 7.3 | 6.37 | inactive
TGDS | 3 | 3.33 | 26.4 | 17 | inactive
ITIH2 | 1 | -0.55 | -0.905 | 4.72 | inactive
ITIH2 | 2 | 0.222 | 4.53 | 7.41 | inactive
ITIH2 | 3 | 0.21 | 4.44 | 5.83 | inactive
TMEM64 | 1 | 1.59 | 14.2 | 8.68 | inactive
TMEM64 | 2 | 2.82 | 22.8 | 10.6 | inactive
TMEM64 | 3 | -0.0402 | 2.68 | 3.61 | inactive
OR6N1 | 1 | 0.621 | 7.33 | 5.43 | inactive
OR6N1 | 2 | -0.729 | -2.16 | 1.8 | inactive
OR6N1 | 3 | -0.0801 | 2.4 | 5.08 | inactive
ZNF875 | 1 | -0.208 | 1.51 | 3.61 | inactive
ZNF875 | 2 | 0.559 | 6.9 | 5.56 | inactive
ZNF875 | 3 | -0.948 | -3.71 | 2.23 | inactive
EML1 | 1 | -0.782 | -2.53 | 4.11 | inactive
EML1 | 2 | -0.952 | -3.73 | 2.72 | inactive
EML1 | 3 | -0.523 | -0.71 | 3.24 | inactive
OSR2 | 1 | -0.802 | -2.67 | 4.43 | inactive
OSR2 | 2 | 3.28 | 26 | 14.3 | inactive
OSR2 | 3 | 0.0391 | 3.24 | 6.36 | inactive
POR | 1 | -1.07 | -4.57 | 2.93 | inactive
POR | 2 | -0.442 | -0.145 | 4.93 | inactive
POR | 3 | -1.29 | -6.11 | 2.11 | inactive
EZH1 | 1 | 3.55 | 27.9 | 13.6 | inactive
EZH1 | 2 | 0.111 | 3.75 | 6.6 | inactive
EZH1 | 3 | -0.261 | 1.13 | 5.69 | inactive
UBC | 1 | 1.14 | 11 | 10 | inactive
UBC | 2 | 1.17 | 11.2 | 8.33 | inactive
UBC | 3 | 6.47 | 48.5 | 20.5 | active
ZBTB25 | 1 | -0.532 | -0.775 | 3.27 | inactive
ZBTB25 | 2 | -0.784 | -2.55 | 4.85 | inactive
ZBTB25 | 3 | 0.312 | 5.16 | 5.5 | inactive
U2AF2 | 1 | -0.89 | -3.3 | 2.74 | inactive
U2AF2 | 2 | -0.297 | 0.881 | 4.45 | inactive
U2AF2 | 3 | 0.751 | 8.25 | 9.68 | inactive
KNCN | 1 | -0.559 | -0.962 | 3.51 | inactive
KNCN | 2 | -0.231 | 1.34 | 3.33 | inactive
KNCN | 3 | -0.573 | -1.06 | 2.7 | inactive
MT1CP | 1 | 0.731 | 8.11 | 6.75 | inactive
MT1CP | 2 | 1.37 | 12.6 | 8.19 | inactive
MT1CP | 3 | -0.765 | -2.41 | 2.3 | inactive
OXNAD1 | 1 | -0.0827 | 2.39 | 5.99 | inactive
OXNAD1 | 2 | 0.0306 | 3.18 | 5.68 | inactive
OXNAD1 | 3 | -0.00741 | 2.92 | 7.02 | inactive
NKX1-1 | 1 | -1.02 | -4.18 | 1.81 | inactive
NKX1-1 | 2 | -0.232 | 1.34 | 4.08 | inactive
NKX1-1 | 3 | 1.54 | 13.8 | 10.1 | inactive
CAPRIN1 | 1 | 0.202 | 4.39 | 7.21 | inactive
CAPRIN1 | 2 | -0.52 | -0.688 | 5.09 | inactive
CAPRIN1 | 3 | -0.623 | -1.42 | 2.73 | inactive
NAP1L3 | 1 | 1.8 | 15.6 | 11.6 | inactive
NAP1L3 | 2 | 2.39 | 19.8 | 12 | inactive
NAP1L3 | 3 | -0.0658 | 2.5 | 4.26 | inactive
SPATA6 | 1 | -0.916 | -3.47 | 2.36 | inactive
SPATA6 | 2 | -0.161 | 1.84 | 5.04 | inactive
SPATA6 | 3 | -0.708 | -2.02 | 2.53 | inactive
CPEB4 | 1 | 3.61 | 28.3 | 15.3 | inactive
CPEB4 | 2 | 3.29 | 26.1 | 13.6 | inactive
CPEB4 | 3 | 1.37 | 12.6 | 10.7 | inactive
OR4E1 | 1 | 0.089 | 3.59 | 5.08 | inactive
OR4E1 | 2 | 0.382 | 5.65 | 5.83 | inactive
OR4E1 | 3 | -0.789 | -2.58 | 2.53 | inactive
SPATA19 | 1 | -0.712 | -2.04 | 2.84 | inactive
SPATA19 | 2 | 0.0889 | 3.59 | 4.36 | inactive
SPATA19 | 3 | 1.73 | 15.1 | 8.02 | inactive
CCL24 | 1 | -0.901 | -3.37 | 4.55 | inactive
CCL24 | 2 | -0.754 | -2.34 | 3.75 | inactive
CCL24 | 3 | 1.81 | 15.7 | 9.16 | inactive
APPL1 | 1 | 0.213 | 4.46 | 8.19 | inactive
APPL1 | 2 | -0.658 | -1.66 | 3.64 | inactive
APPL1 | 3 | -1.04 | -4.35 | 2.57 | inactive
CHRM5 | 1 | -0.852 | -3.03 | 4.76 | inactive
CHRM5 | 2 | -0.128 | 2.07 | 5.24 | inactive
CHRM5 | 3 | -0.257 | 1.16 | 3.62 | inactive
TULP3 | 1 | 1.33 | 12.3 | 10.6 | inactive
TULP3 | 2 | -0.851 | -3.02 | 2.7 | inactive
TULP3 | 3 | 0.514 | 6.58 | 5.67 | inactive
ADGRF3 | 1 | -0.266 | 1.1 | 3.61 | inactive
ADGRF3 | 2 | 2.23 | 18.7 | 12.5 | inactive
ADGRF3 | 3 | -0.00704 | 2.92 | 5.54 | inactive
TIMM21 | 1 | 0.826 | 8.78 | 7.21 | inactive
TIMM21 | 2 | 0.62 | 7.33 | 7.32 | inactive
TIMM21 | 3 | -0.631 | -1.47 | 2.79 | inactive
MRGPRX2 | 1 | -0.893 | -3.32 | 2.25 | inactive
MRGPRX2 | 2 | 0.589 | 7.11 | 8.38 | inactive
MRGPRX2 | 3 | -0.0825 | 2.39 | 5.35 | inactive
